# Measurements taken from PubChem BioAssay AID1259354 (Paczesny and Yang Labs, IUPUI and University of Michigan, 2018).
# Amino acid sequences for entries named in this document (tags omitted). A change or cut given only in a name is not applied to a line headed by its entry.
# UniProt Q01638: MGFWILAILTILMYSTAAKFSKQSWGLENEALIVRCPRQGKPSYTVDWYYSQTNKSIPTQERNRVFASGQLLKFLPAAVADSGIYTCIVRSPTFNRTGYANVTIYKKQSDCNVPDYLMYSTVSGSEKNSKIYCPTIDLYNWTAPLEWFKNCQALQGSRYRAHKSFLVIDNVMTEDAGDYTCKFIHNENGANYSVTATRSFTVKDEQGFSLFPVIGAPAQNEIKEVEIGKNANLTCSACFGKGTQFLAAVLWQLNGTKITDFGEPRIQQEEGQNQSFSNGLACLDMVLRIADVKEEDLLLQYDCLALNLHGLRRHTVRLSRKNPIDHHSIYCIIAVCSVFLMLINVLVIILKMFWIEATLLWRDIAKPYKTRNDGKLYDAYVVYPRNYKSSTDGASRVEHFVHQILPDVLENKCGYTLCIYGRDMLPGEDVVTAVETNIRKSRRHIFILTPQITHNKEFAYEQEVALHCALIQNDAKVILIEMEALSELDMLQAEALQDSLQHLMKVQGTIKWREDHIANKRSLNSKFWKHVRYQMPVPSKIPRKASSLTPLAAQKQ
# Where “and” joins values, the source holds several entries; their conditions need not be identical. Equal values may be shown once. In all, about 78,000 compounds went through this assay and about 1,800 (2.3%) were called active. The shares of active, inactive and inconclusive entries below differ from those in the screen. Cut-off read from the data, not from the text of the source: active = inhibition above about 30%; inconclusive = mostly about 10% to 28%; inactive = weaker than that.
# Target: Interleukin-1 receptor-like 1 (Homo sapiens) (UniProt Q01638)
# Assay: blocks human ST2 binding to IL-33, primary screen, biochemical, AlphaLISA (AID 1259354)
# Conditions: AlphaLISA ST2-Fc/biotin-IL-33 interaction, 1 h; at 17 µM, stronger effect = higher value
row,SMILES,inhibition
1,CCCNS(=O)(=O)c1cc(OC)ccc1OC,inactive
2,O=C(c1ccccc1F)N(c1ccc(F)cc1)C1C=CS(=O)(=O)C1 (configuration not stated),inactive
3,Fc1ccc(-n2cccn2)c(CN2CCCC(OCc3ccccn3)C2)c1 (configuration not stated),inconclusive: 22%
4,C=CCc1cc(C=O)cc(OCC)c1OCc1ccc([N+](=O)[O-])cc1,inconclusive: 21%
5,CC(=O)c1ccc(NC(=O)Cn2c(-c3cncs3)nc3ccccc32)cc1,inconclusive: 15%
6,O=C(Nc1ccccc1F)c1nn(-c2ccc(Cl)cc2)c(=O)c2ccccc12,inconclusive: 13%
7,O=[N+]([O-])CC1CCS(=O)(=O)C1 (configuration not stated),inconclusive: 14%
8,CN(Cc1nncn1C)c1nccc(C2CCCC2)n1,inconclusive: 20%
9,C/C(=C\c1ccccc1)CN(C)C(C)c1cccnc1 (configuration not stated),inconclusive: 14%
10,O=S(=O)(c1cccc2nsnc12)N(CCc1ccccc1)Cc1ccccc1,inconclusive: 18%
11,N#CSCCCCOc1ccccc1Cl,inactive
12,CCOC(=O)c1c(NC(=O)C(C)Oc2ccc(Cl)c(C)c2)sc(C(C)=O)c1C (configuration not stated),inactive
13,CCOc1ccc(-n2c(SC(C)C(=O)OC)nc3c([nH]c4ccccc43)c2=O)cc1 (configuration not stated),inconclusive: 17%
14,CN1CCN2CCN(C(=O)C3(C)CCNCC3)CC2C1 (configuration not stated),inconclusive: 10%
15,C=CCn1c(=O)[nH]c2cc(C(=O)NCc3ccc4c(c3)OCO4)ccc2c1=O,inactive
16,CCOc1ccc(C2CC(=O)N3CN(C4CCCCC4)CSC3=C2C#N)cc1 (configuration not stated),inactive
17,CC(C(=O)NCc1cccnc1N(C)C)n1cnc2ccccc21 (configuration not stated),inactive
18,O=[N+]([O-])c1cccc(NCc2ccccc2)c1,inconclusive: 29%
19,CC(O)/C=C/C1C(C)C(O[C@@H]2O[C@H](CO)[C@@H](O)[C@H](O)[C@H]2O)C(O)CC1(C)C (some centres not stated),inconclusive: 11%
20,Cc1ccccc1N1CCN(S(=O)(=O)C[C@]23CC[C@H](C[C@@H]2NC(=O)[C@@H](N)CCS(C)(=O)=O)C3(C)C)CC1,inconclusive: 18%
21,CC(C)N(Cc1ccccc1)C(=O)c1cc2c(=O)n3ccccc3nc2n1C,inconclusive: 12%
22,Cn1nnc2cc(C(=O)N3CCCC4(C=Cc5ccccc5O4)CC3)ccc21 (configuration not stated),inconclusive: 15%
23,CC(CCn1cccn1)n1ccnc1-c1ccccc1C(=O)O (configuration not stated),inactive

# Some of these compounds in order of molar mass, falling:
row,SMILES,inhibition
14,CN1CCN2CCN(C(=O)C3(C)CCNCC3)CC2C1 (configuration not stated),inconclusive: 10%
8,CN(Cc1nncn1C)c1nccc(C2CCCC2)n1,inconclusive: 20%
9,C/C(=C\c1ccccc1)CN(C)C(C)c1cccnc1 (configuration not stated),inconclusive: 14%

# Following part.

row,SMILES,inhibition
1,C=CCn1c(SCC(=O)Nc2ccccc2F)nnc1-c1ccc(OC)cc1,inconclusive: 13%
2,O=C(CCOc1ccccc1)N1CCC2(CCCN(CCc3ccccc3)C2)C1 (configuration not stated),inconclusive: 13%
3,O=C(/C=C/c1ccccc1)NC(NCC1CCCO1)C(Cl)(Cl)Cl (configuration not stated),inconclusive: 11%
4,CCN1C(=O)CC(CC(=O)N(C)Cc2cccc3ncccc23)(c2cccc(C(F)(F)F)c2)C1=O (configuration not stated),inactive
5,CSCc1ccc(C(=O)N(C)Cc2nc3ccc(C)cc3[nH]2)o1,inconclusive: 27%
6,COc1ccc(N=Cc2cc(Br)ccc2O)c(OC)c1,inconclusive: 23%
7,Cc1ccsc1CN(C)C(=O)[C@H](N)CC(C)C,inconclusive: 12%
8,COc1cccc(C(=O)Nc2nc3ccc(Cl)cc3s2)c1,inconclusive: 12%
9,CC(C(=O)c1ccccc1)C1(O)C(=O)N(Cc2ccc(Cl)cc2)c2ccccc21 (configuration not stated),inconclusive: 11%
10,CS(=O)(=O)NC[C@H]1O[C@@H](CO)[C@@H](O)[C@H]1N1CCN(c2ccccn2)CC1,inconclusive: 10%
11,Cc1ccc(-n2c(C)nc3c(cnn3-c3ccc(C)c(C)c3)c2=O)cc1,inconclusive: 15%
12,CN(Cc1cnn(-c2ccc(F)cc2)c1)Cc1nc(-c2cccs2)no1,inconclusive: 18%
13,CCc1ccc(CN2CCN(c3ccccn3)CC2)cc1,inconclusive: 10%
14,C=CCN1CC(c2nc(CC(C)C)nn2-c2ccc(OC)cc2)CCC1=O (configuration not stated),inconclusive: 10%
15,COc1ccc(CN[C@H]2[C@H](O)[C@@H](N3CCN(c4ccccc4OC)CC3)[C@@H]3OC[C@H]2O3)cc1,inconclusive: 18%
16,Cc1cccc(-c2ccc3c(c2)C(=O)N2CC[C@H](NC(=O)c4cnccn4)[C@H]2C(=O)N3)c1C,inconclusive: 14%
17,CN1C(=O)C(O)(CC(=O)c2cc(O)ccc2O)c2ccccc21 (configuration not stated),inconclusive: 18%
18,COCc1nnc(NC(=O)c2ccc(S(=O)(=O)N(C)c3ccccc3)cc2)o1,inconclusive: 12%
19,Cc1cnc(C(=O)N2CCCC(C(=O)c3ccc(-c4ccccc4)c(F)c3)C2)cn1 (configuration not stated),inconclusive: 14%
20,Cc1oc(N=Cc2cccc([N+](=O)[O-])c2)c(C#N)c1C,inconclusive: 10%
21,CCCOc1ccc(N2C(=O)CC(NCCNc3ccc([N+](=O)[O-])cn3)C2=O)cc1 (configuration not stated),inconclusive: 15%
22,COCCn1cc(C(=O)N2CCC(C(N)=O)CC2)c2c3ccccc3n(C)c2c1=O,inconclusive: 10%
23,Cc1ccc(C2(O)CCN(Cc3cnc(NCC4CCCO4)nc3)CC2)nc1 (configuration not stated),inconclusive: 13%

# Random excerpt: four records from the list.
row,SMILES,inhibition
17,CN1C(=O)C(O)(CC(=O)c2cc(O)ccc2O)c2ccccc21 (configuration not stated),inconclusive: 18%
19,CC(O)/C=C/C1C(C)C(O[C@@H]2O[C@H](CO)[C@@H](O)[C@H](O)[C@H]2O)C(O)CC1(C)C (some centres not stated),inconclusive: 11%
20,Cc1oc(N=Cc2cccc([N+](=O)[O-])c2)c(C#N)c1C,inconclusive: 10%
12,CN(Cc1cnn(-c2ccc(F)cc2)c1)Cc1nc(-c2cccs2)no1,inconclusive: 18%

# Next part

row,SMILES,inhibition
1,CCc1ccc(S(=O)(=O)NCC(=O)O)cc1,inactive
2,COc1c(Br)cc(Br)cc1/C=C1/C(=O)N=C(N)N1C,inconclusive: 17%
3,Fc1ccc(-c2cc(C(F)(F)F)nc(NCc3ccco3)n2)cc1,inactive
4,CC(=O)c1cccc(N2COc3ccc(Br)cc3C2)c1,inactive
5,Cc1cc(Nc2ccccc2)nc(Nc2ccc(NC(=O)c3ccc(Br)cc3)cc2)n1,inconclusive: 16%
6,O[C@@H]1C[C@@H](c2nc(Cc3ccc(F)cc3Cl)no2)N(Cc2ccco2)C1,inconclusive: 20%
7,CC1CC(=O)N(Cc2ccc(F)cc2)c2ccccc2S1 (configuration not stated),inactive
8,CCCCOc1ccc(C(C)(C#N)CC#N)cc1 (configuration not stated),inconclusive: 11%
9,O=S(=O)(NCCN1CCCC1)c1cccc2nsnc12,inconclusive: 15%
10,CCCN(C(=O)Cc1c(C(=O)O)[nH]c2ccc(Cl)cc12)c1ccc(OCC)cc1,inconclusive: 10%
11,CC1Cc2ccccc2N1C(=O)CSC1=C(C#N)C(c2ccccc2F)CC(=O)N1 (configuration not stated),inconclusive: 15%
12,COc1ccc(CCC(=O)NCc2nc3cccnc3n2Cc2ccc(C)cc2)cc1,inconclusive: 13%
13,Cc1c(NC(=O)c2sc3cccc(Cl)c3c2Cl)c(=O)n(-c2ccccc2)n1C,inactive
14,Cc1cc2c(cc1CN1CCCCC1CCN1CCN(C)CC1)OCO2 (configuration not stated),inconclusive: 18%
15,CC(=O)C1=C(C)NC(SCc2ccccc2)=C(C#N)C1c1ccccc1 (configuration not stated),inconclusive: 11%
16,CC(=O)c1ccc(NC(=O)O[C@@H]2CO[C@H]3[C@@H]2OC[C@@H]3NS(=O)(=O)c2ccc(Cl)cc2)cc1,inactive
17,NC(=Nc1nc2ccccc2o1)NC(=O)c1ccccc1Br,inactive
18,COc1cc(/C=C2\C(=O)Nc3ccc(Br)cc32)cc(Cl)c1O,inconclusive: 23%
19,COc1ccc(Oc2ccc(-n3c(C)ccc3C)cc2)cc1,inconclusive: 10%
20,Cc1ccc(NC(=O)C2(N(C(=O)Cn3nnnc3N)c3ccc(C)cc3)CCCCC2)cc1,inconclusive: 14%
21,COc1ccc(Cl)cc1C(=O)Nc1ccc(-c2nc3ncccc3o2)cc1,inactive
22,Cc1cc[n+](C2C(c3ccc([N+](=O)[O-])cc3)C(C#N)=C([S-])NC2(O)C2CC2)cc1 (configuration not stated),active: 59%
23,CCN(CC)C(=O)CC[C@H]1CNC(=O)[C@@H]2[C@@H](CCN2C2CCN(C)CC2)N1C,inconclusive: 17%

row,SMILES,inhibition
1,CC(C)n1cnnc1CN(C)c1cc(N2CCOCC2)nc(N)n1,inconclusive: 14%
2,Cc1ccc(C(=O)c2oc3ccc(Cl)cc3c2N)cc1,inconclusive: 19%
3,O=C(Cc1c(C(=O)O)[nH]c2ccccc12)NC1CC1,inactive
4,CNC(=O)c1ccc(OC)c(-c2ccccc2CN2CCOCC2)c1,inactive
5,COc1ccc2nc(C)cc(Nc3ccc(N(C)C)cc3)c2c1,active: 52%
6,CC(=O)Nc1ccc(-c2nccn2CCSc2ncn[nH]2)cc1,inactive
7,CC1(C)CC(=O)C2=C(C1)NC1=C(C(=O)c3ccccc31)C2c1ccc(F)cc1 (configuration not stated),inconclusive: 13% and inconclusive: 11%
8,Cc1cnc(NCCCC2CCOC2)nc1N(C)C (configuration not stated),inconclusive: 14%
9,COc1cc([N+](=O)[O-])ccc1N1C(=O)c2c(C)nc3ccccc3c2C1=O,inactive
10,O=C(CN1C(=O)/C(=C/c2ccccc2F)Sc2ccccc21)NCc1cccnc1,inconclusive: 13%
11,CC(C)Oc1ccccc1/C=C1/C(=O)NN(c2ccc(Cl)c(Cl)c2)C1=O,inconclusive: 19%
12,O=C(CCn1cnnn1)NCc1cnn2ccccc12,active: 30%
13,O=C(NC[C@H]1O[C@@H](CO)[C@@H](O)[C@H]1N1CCN(c2ccc(F)cc2)CC1)c1cccs1,active: 74%
14,Cc1nc(SCC(=O)N2CCC(C(O)CCc3ccccc3)CC2)n[nH]1 (configuration not stated),inconclusive: 11%
15,NC1=NC(=O)/C(=C/c2ccc(OCc3ccc(F)cc3)cc2)S1,inconclusive: 20%
16,N#C/C(=C\c1ccc(Br)cc1)c1nc(-c2ccc([N+](=O)[O-])cc2)cs1,inconclusive: 23%
17,COCc1c(C(=O)NCc2ccc3c(c2)CCCN3C)cnn1-c1nccc(-c2ccco2)n1,inconclusive: 12%
18,COc1ccc(C2NC(=O)c3c(sc(C)c3C)N2)cc1 (configuration not stated),inconclusive: 13%
19,COc1ccc(NS(=O)(=O)c2cc(C(=O)Nc3ccc(C(=O)O)cc3)ccc2C)cc1,inactive
20,COc1ccc(C)cc1-n1cnnc1CCN,inconclusive: 11%
21,CC(C(=O)NC1CC1)N1CCc2[nH]nc(C(c3ccccc3)c3ccccc3)c2C1 (configuration not stated),active: 97%
22,CCC(Cc1ccccc1)NC(C)=O (configuration not stated),inactive
23,COc1ccc(S(=O)(=O)N2CCc3c(ncnc3N(C)C)C2)c(OC)c1,inconclusive: 13%
